Assay results: patent EP0312245A2, “Polycyclic compounds and pharmaceutical compositions thereof” (NORISTAN HOLDINGS LIMITED, priority 1987, dated 1989)
At least one structure is not confirmed: it was looked up by name or label, or the drawing left a doubt.

System: isolated rabbit ear preparation
Assay: Rabbit ear perfusion test (adrenaline-induced tone, perfusion pressure)
Details: Table 6
Description: Female New Zealand White rabbits (approximately 4kg) were anaesthetised with Sagatal ® (0.5ml/kg).
The central ear artery was cannulated using a 20 G catheter and the ear cut off at its base. Heparinised (5ml, 200 IU;ml) Krebs bicarbonate solution was perfused through the ear to expel the blood. The ear was placed in a warming jacket at 37°C and attached via the arterial catheter to the perfusion pump. Perfusion of the ear with aerated (95% 025% C02)Krebs bicarbonate solution at 37° C was commenced at a rate of 6.5ml/min using a Watson Marlow peristaltic pump. The perfusion pressure was monitored continuously using a pressure transducer (Type 4-327-1221, Consoliated Electrodynamics) coupled to a Devices Recorder.
Following an equilibration period of 15 minutes, increased tone was induced in the preparation by addition of adrenaline (1µg/ml) to the perfusion fluid.
After a stable tone was observed, various concentrations of test compounds were injected into the perfusion fluid and examined for their effect on the perfusion pressure. The effect of vehicle (0.2ml, 50% Krebs 50% ethanol) was also tested on the ear preparation.

## COC(=O)C1=C(C)NC(C)=C(C(=O)OC)C1c1ccccc1[N+](=O)[O-] [Nifedipine]
Dose 100 μg
  Mean time to return to predose value: 3.25 min
Dose 316 μg
  Mean time to return to predose value: 5.5 min
Dose 1000 μg
  Mean time to return to predose value: 6.25 min
